Assay results reported in article PMC3418287.
Like-named read-outs stand apart in the source and are kept apart here. Results are given in words; binding and its absence hold for the method and conditions named. Binding seen in cells or lysates may run through a third protein. A yes stands for co-enrichment or nearness to the bait. Other partners may have been found. For some of these results: No binding means not detected with the bait. For some of these results: Sequences can lack the tags named with a protein. Each block holds one molecule with its values, some of them ahead of it.

By UniProt entry, the sequences of proteins in these tests, tags left out.
UniProt Q15370: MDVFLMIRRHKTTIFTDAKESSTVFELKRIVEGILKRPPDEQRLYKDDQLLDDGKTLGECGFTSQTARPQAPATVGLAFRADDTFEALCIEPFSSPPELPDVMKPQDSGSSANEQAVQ

Legend:
[1] = biological target: T1, TAG-LAGE3 (HeLaS3 stable line) (human) (UniProt Q14657); assay: affinity purification with mass spectrometry; TAG-LAGE3 purified from nuclear extracts of HeLaS3 cells (very low to undetectable endogenous PRAME) by anti-HA immunoprecipitation; eluates analysed by mass spectrometry
T1 sequence: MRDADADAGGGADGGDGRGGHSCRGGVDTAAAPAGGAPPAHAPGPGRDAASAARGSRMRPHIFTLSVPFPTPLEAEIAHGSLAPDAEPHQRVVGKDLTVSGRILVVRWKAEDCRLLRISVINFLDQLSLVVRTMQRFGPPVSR

[2] = biological target: T2, TAG-LAGE3 (K562 stable line) (human) (UniProt Q14657); assay: affinity purification with mass spectrometry; TAG-LAGE3, TAG-OSGEP, TAG-TP53RK or TAG-TPRKB purified from K562 nuclear extracts by anti-HA immunoprecipitation; eluates analysed by mass spectrometry; wild type K562 cells as control
T2 sequence: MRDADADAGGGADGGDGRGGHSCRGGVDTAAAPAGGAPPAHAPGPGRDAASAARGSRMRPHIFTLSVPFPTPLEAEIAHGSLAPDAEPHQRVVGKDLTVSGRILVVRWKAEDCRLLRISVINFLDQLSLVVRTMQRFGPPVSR

[3] = biological target: StrepII-Myc-3xHA-PRAME (K562 stable line) (human) (UniProt P78395); assay: affinity purification with mass spectrometry; TAG-PRAME purified from K562 nuclear extracts on crosslinked anti-MYC beads (peptide elution) or anti-HA 12CA5 beads (acidic glycine pH 2.9 elution); eluates analysed by mass spectrometry; wild type K562 cells as control
[4] = biological target: StrepII-Myc-3xHA-PRAME (HeLaS3 stable line) (human) (UniProt P78395); assay: affinity purification with mass spectrometry; TAG-PRAME purified from HeLaS3 nuclear and cytoplasmic extracts by anti-HA immunoprecipitation; eluates analysed by mass spectrometry; wild type HeLaS3 cells as control
[5] = biological target: T3, TAG-TP53RK (K562 stable line) (human) (UniProt Q96S44); assay: affinity purification with mass spectrometry; TAG-LAGE3, TAG-OSGEP, TAG-TP53RK or TAG-TPRKB purified from K562 nuclear extracts by anti-HA immunoprecipitation; eluates analysed by mass spectrometry; wild type K562 cells as control
T3 sequence: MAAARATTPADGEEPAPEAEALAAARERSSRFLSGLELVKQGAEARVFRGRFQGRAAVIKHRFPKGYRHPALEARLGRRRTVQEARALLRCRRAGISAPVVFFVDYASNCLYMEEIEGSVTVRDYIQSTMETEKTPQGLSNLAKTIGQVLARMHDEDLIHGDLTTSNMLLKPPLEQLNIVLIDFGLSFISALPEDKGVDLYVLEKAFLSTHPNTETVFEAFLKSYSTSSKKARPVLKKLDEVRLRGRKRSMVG

[6] = biological target: TAG-TPRKB (K562 stable line) (human) (UniProt Q9Y3C4); assay: as above
[7] = biological target: T4, TAG-OSGEP (K562 stable line) (human) (UniProt Q9NPF4); assay: as above
T4 sequence: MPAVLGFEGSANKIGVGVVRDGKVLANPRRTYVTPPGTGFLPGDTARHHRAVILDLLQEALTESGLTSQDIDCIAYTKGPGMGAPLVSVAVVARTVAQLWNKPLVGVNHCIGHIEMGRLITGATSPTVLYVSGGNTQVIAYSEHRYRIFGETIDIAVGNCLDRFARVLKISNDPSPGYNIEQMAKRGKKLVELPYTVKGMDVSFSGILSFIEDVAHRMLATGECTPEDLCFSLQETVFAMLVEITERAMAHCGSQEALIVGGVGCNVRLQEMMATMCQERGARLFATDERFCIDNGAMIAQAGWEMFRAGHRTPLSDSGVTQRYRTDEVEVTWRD

[8] = biological target: StrepII-Myc-3xHA-PRAME (HeLaS3 stable line) (human) (UniProt P78395); assay: affinity purification with mass spectrometry; TAG-PRAME purified from HeLaS3 nuclear and cytoplasmic extracts by anti-HA immunoprecipitation; eluates analysed by mass spectrometry; wild type HeLaS3 cells as control; remark: listed apart in the source
[9] = biological target: StrepII-Myc-3xHA-PRAME (K562 stable line) (human) (UniProt P78395); assay: affinity purification with mass spectrometry; TAG-PRAME purified from K562 nuclear extracts on crosslinked anti-MYC beads (peptide elution) or anti-HA 12CA5 beads (acidic glycine pH 2.9 elution); eluates analysed by mass spectrometry; wild type K562 cells as control; remark: listed apart in the source
[10] = biological target: T5, TAG-OSGEP (K562 stable line) (human), Q9NPF4; assay: affinity purification with mass spectrometry; TAG-LAGE3, TAG-OSGEP, TAG-TP53RK or TAG-TPRKB purified from K562 nuclear extracts by anti-HA immunoprecipitation; eluates analysed by mass spectrometry; wild type K562 cells as control; conditions: remark: other sources report otherwise
T5 chain: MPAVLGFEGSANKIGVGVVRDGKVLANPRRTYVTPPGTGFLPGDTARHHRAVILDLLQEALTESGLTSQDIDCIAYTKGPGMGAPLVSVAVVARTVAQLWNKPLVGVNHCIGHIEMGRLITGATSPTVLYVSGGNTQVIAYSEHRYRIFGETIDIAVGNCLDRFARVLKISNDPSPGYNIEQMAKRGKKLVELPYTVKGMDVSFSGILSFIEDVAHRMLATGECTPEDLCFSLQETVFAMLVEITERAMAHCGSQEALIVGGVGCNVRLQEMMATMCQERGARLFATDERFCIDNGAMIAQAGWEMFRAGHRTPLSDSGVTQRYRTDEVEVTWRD

Molecule: Elongin B (TCEB2 Transcription elongation factor B polypeptide 2) (from UniProt Q15370 1-118)
binding [3]: binds | binding [4]: binds

Molecule: endogenous PRAME (from UniProt P78395 1-509)
binding [2]: binds | binding [5]: no binding | binding [6]: no binding | binding [7]: binds

B1: endogenous LAGE3 (L antigen family member 3) (protein, UniProt Q14657 1-143)
chain: MRDADADAGGGADGGDGRGGHSCRGGVDTAAAPAGGAPPAHAPGPGRDAASAARGSRMRPHIFTLSVPFPTPLEAEIAHGSLAPDAEPHQRVVGKDLTVSGRILVVRWKAEDCRLLRISVINFLDQLSLVVRTMQRFGPPVSR
binding [8]: binds | binding [9]: binds | binding [6]: binds

B3: C14orf142 hypothetical protein LOC84520 (protein, UniProt Q9BXV9 1-100)
chain: MELLGEYVGQEGKPQKLRVSCEAPGDGDPFQGLLSGVAQMKDMVTELFDPLVQGEVQHRVAAAPDEDLDGDDEDDAEDENNIDNRTNFDGPSAKRPKTPS
binding [5]: binds

More lines, now with the values ahead:

binding [1]: binds | binding [2]: binds | binding [3]: no binding | binding [4]: no binding
Molecule: endogenous TPRKB (TP53RK-binding protein) (from UniProt Q9Y3C4 1-175)

binding [10]: binds
B2: C14orf142 hypothetical protein LOC84520, Q9BXV9 1-100 (protein)
chain: MELLGEYVGQEGKPQKLRVSCEAPGDGDPFQGLLSGVAQMKDMVTELFDPLVQGEVQHRVAAAPDEDLDGDDEDDAEDENNIDNRTNFDGPSAKRPKTPS

binding [8]: binds | binding [9]: binds
B4: endogenous OSGEP (Probable O-sialoglycoprotein endopeptidase) (protein, UniProt Q9NPF4 1-335)
chain: MPAVLGFEGSANKIGVGVVRDGKVLANPRRTYVTPPGTGFLPGDTARHHRAVILDLLQEALTESGLTSQDIDCIAYTKGPGMGAPLVSVAVVARTVAQLWNKPLVGVNHCIGHIEMGRLITGATSPTVLYVSGGNTQVIAYSEHRYRIFGETIDIAVGNCLDRFARVLKISNDPSPGYNIEQMAKRGKKLVELPYTVKGMDVSFSGILSFIEDVAHRMLATGECTPEDLCFSLQETVFAMLVEITERAMAHCGSQEALIVGGVGCNVRLQEMMATMCQERGARLFATDERFCIDNGAMIAQAGWEMFRAGHRTPLSDSGVTQRYRTDEVEVTWRD

binding [8]: no binding | binding [9]: no binding
B5: endogenous TP53RK (TP53-regulating kinase) (protein, UniProt Q96S44 1-253)
chain: MAAARATTPADGEEPAPEAEALAAARERSSRFLSGLELVKQGAEARVFRGRFQGRAAVIKHRFPKGYRHPALEARLGRRRTVQEARALLRCRRAGISAPVVFFVDYASNCLYMEEIEGSVTVRDYIQSTMETEKTPQGLSNLAKTIGQVLARMHDEDLIHGDLTTSNMLLKPPLEQLNIVLIDFGLSFISALPEDKGVDLYVLEKAFLSTHPNTETVFEAFLKSYSTSSKKARPVLKKLDEVRLRGRKRSMVG
